According to the supplement of paper PMC10849652:
This is one part of the list.

Sequences of proteins named here, by UniProt entry; tags and fusion partners are left off. A change or cut given only in a name is not applied to a line headed by its entry.
UniProt P56377: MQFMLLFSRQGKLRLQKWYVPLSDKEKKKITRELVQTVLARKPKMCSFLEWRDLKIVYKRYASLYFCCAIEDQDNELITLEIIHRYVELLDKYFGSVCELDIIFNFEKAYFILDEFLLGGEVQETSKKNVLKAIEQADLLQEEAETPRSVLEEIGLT
UniProt Q9UJX3, whole entry, looked up: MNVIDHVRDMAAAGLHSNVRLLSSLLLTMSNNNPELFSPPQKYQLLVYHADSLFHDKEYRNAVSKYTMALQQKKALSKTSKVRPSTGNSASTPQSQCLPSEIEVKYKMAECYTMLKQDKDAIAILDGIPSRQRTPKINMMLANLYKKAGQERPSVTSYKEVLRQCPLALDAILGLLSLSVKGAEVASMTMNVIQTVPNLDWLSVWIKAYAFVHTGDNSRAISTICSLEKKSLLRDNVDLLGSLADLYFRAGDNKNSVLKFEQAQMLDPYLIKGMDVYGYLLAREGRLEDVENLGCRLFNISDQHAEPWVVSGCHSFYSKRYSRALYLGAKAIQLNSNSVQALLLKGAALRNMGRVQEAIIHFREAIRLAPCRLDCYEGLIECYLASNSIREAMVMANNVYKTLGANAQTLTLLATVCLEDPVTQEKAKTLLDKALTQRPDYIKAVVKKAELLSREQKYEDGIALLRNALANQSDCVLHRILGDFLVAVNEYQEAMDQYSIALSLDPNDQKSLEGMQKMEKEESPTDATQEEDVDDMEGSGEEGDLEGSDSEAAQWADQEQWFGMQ
UniProt O75843: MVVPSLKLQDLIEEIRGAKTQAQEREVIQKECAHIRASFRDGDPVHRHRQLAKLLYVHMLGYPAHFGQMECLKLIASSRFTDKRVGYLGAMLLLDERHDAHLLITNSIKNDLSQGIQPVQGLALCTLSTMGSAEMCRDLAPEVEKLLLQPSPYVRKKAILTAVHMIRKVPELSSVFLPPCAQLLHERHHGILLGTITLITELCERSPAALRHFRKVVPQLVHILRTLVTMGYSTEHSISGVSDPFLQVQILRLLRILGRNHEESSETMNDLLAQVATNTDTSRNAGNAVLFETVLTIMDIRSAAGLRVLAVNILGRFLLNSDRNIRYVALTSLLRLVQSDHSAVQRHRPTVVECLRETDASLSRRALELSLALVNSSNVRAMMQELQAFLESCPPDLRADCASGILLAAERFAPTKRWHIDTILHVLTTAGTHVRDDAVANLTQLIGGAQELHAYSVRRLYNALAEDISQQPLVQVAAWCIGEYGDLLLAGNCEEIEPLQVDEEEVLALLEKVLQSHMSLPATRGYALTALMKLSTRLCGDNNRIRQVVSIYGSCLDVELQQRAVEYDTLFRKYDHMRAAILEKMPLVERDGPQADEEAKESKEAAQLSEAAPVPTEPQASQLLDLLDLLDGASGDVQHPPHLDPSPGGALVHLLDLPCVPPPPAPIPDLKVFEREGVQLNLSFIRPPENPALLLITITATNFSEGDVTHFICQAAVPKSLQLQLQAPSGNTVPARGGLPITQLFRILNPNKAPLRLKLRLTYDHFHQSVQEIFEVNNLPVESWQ
UniProt Q4KMQ2: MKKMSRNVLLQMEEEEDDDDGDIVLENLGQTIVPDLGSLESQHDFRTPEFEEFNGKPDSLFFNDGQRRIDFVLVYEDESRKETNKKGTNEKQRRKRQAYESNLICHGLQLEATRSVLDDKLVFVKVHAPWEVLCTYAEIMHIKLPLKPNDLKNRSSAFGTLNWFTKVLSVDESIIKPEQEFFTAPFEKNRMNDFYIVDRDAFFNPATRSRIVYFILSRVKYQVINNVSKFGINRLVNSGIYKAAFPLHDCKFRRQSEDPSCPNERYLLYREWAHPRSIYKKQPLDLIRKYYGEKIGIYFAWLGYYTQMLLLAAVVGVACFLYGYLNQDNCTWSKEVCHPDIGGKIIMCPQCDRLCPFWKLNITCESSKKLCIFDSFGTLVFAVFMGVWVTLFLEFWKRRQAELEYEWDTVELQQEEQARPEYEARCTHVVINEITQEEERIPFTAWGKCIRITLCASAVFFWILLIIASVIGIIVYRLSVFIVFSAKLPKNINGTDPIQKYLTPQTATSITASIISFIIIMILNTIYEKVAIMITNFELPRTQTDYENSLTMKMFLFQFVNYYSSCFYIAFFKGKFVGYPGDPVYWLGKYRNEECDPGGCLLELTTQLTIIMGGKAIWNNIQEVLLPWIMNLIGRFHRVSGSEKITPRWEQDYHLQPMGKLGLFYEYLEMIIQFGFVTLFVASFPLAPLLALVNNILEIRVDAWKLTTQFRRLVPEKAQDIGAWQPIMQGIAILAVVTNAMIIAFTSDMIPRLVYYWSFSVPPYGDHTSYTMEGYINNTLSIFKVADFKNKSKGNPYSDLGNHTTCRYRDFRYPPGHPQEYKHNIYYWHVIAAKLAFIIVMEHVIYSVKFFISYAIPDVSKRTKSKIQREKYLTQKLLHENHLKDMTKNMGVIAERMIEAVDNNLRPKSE
UniProt O14617: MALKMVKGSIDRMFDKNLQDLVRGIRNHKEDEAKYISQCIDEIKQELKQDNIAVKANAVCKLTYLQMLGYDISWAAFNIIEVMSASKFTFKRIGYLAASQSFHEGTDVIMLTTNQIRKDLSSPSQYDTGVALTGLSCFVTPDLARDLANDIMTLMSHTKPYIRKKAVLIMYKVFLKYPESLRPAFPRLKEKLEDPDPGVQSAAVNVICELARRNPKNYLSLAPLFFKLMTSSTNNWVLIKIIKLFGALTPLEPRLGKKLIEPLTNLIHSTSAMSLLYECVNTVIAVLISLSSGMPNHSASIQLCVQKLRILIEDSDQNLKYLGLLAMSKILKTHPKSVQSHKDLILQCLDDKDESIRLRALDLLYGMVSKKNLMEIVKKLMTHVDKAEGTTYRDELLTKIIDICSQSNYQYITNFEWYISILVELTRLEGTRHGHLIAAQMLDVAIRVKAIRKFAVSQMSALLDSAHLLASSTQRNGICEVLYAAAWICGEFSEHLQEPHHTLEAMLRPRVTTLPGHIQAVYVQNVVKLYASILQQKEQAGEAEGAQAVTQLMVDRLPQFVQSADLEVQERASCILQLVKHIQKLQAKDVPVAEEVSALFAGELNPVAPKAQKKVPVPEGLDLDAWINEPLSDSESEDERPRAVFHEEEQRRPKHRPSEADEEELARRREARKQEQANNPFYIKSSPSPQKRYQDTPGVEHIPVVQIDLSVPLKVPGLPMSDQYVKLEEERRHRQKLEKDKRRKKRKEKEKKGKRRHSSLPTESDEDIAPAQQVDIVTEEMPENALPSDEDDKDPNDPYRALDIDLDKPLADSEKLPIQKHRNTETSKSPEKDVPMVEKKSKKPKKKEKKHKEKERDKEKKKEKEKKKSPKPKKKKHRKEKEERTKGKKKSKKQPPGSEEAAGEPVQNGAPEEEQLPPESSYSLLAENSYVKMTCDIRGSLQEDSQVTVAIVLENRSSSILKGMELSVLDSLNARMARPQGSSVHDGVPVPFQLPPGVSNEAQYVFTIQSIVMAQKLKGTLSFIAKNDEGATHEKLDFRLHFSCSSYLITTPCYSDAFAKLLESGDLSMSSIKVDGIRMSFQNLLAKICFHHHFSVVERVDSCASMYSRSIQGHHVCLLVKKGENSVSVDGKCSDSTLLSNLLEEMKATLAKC
UniProt P16157: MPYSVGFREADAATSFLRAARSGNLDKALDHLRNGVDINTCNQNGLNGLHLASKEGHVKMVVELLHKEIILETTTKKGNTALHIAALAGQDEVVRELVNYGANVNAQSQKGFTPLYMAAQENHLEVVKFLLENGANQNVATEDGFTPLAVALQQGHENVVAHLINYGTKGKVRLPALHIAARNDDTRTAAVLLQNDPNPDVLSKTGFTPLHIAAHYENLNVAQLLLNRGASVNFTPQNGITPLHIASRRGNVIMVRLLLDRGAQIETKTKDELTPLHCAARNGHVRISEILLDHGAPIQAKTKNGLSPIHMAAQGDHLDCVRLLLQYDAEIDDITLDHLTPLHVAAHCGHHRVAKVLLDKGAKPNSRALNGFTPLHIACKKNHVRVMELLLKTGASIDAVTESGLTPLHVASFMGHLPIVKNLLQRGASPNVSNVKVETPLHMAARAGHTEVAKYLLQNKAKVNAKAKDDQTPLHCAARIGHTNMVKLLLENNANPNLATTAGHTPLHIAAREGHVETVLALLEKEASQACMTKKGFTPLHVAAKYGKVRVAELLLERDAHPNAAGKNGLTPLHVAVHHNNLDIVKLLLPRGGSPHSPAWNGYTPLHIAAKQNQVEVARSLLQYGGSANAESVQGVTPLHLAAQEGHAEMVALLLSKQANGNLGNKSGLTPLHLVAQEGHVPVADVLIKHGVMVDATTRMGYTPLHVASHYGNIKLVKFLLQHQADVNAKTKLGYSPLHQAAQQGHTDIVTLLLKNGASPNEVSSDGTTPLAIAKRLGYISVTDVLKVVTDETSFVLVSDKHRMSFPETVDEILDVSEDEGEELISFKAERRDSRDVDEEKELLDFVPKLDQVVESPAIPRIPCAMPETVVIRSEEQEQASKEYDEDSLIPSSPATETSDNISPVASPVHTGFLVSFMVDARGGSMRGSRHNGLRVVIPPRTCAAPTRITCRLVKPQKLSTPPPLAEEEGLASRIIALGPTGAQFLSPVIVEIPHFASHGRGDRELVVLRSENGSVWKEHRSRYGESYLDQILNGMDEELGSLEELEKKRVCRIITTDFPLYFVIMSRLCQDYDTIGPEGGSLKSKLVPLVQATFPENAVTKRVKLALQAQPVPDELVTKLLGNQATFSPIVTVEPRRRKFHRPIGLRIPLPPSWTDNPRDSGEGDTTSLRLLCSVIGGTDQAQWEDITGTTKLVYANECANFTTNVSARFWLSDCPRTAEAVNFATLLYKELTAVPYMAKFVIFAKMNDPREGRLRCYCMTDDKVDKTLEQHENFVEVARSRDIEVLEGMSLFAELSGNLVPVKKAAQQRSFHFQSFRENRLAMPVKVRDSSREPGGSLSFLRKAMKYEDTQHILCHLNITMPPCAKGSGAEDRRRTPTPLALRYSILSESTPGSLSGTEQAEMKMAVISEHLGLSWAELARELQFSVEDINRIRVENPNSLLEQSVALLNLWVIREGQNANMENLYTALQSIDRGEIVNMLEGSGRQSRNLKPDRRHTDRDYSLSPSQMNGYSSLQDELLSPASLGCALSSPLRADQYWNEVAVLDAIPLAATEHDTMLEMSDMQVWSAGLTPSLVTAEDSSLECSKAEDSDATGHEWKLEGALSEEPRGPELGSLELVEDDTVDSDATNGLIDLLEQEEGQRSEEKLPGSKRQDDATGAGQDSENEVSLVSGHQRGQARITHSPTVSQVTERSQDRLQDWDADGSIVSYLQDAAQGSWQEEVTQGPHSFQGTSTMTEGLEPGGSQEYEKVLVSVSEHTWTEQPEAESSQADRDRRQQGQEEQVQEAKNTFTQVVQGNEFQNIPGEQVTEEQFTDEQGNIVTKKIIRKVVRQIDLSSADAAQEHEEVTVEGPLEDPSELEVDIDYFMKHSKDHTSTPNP
UniProt Q92685: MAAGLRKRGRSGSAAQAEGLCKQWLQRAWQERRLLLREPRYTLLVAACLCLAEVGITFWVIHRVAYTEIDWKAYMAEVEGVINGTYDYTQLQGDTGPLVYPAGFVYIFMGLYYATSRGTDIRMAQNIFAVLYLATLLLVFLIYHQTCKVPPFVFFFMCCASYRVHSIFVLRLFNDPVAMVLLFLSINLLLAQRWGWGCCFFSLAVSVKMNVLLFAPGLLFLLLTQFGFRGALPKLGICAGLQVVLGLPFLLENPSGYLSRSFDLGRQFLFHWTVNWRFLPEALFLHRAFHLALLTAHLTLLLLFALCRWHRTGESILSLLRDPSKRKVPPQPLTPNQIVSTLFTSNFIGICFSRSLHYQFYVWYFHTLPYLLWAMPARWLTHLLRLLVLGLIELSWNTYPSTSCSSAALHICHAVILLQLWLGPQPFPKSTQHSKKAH
UniProt P04083: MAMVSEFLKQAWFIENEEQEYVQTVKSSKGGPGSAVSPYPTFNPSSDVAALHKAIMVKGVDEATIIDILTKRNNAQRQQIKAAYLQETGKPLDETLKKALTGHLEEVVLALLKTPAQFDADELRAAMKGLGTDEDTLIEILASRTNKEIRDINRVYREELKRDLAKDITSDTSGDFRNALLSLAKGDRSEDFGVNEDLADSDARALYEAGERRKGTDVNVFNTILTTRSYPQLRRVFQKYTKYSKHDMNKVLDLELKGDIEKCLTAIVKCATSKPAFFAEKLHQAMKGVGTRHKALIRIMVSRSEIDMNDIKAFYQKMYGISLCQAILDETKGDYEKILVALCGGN

Legend:
Test in all cases: log2 fold change, soluble protein after heating vs DMSO (PISA); higher = thermal stabilisation; K562 lysate, 10 uM; active = over 0.2 and 3.5 SD of the protein, either way, in both replicates (recomputed)
lapatinib = compound: CS(=O)(=O)CCNCc1ccc(-c2ccc3ncnc(Nc4ccc(OCc5cccc(F)c5)c(Cl)c4)c3c2)o1 [lapatinib]
Procedure, shortened: (§1)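 To prepare the extract, K562 pellets were dounce-homogenised in PBS pH 7.4 with 1 mM MgCl2, giving crude material at 1 mg/mL protein. This was treated with 10 μM compound for 30 min, then heated in aliquots for 3 min over 48°C-58°C before pooling and addition of NP-40 to 0.5% at 4°C. Centrifugation at 21,000xg for 90 min left soluble protein in the supernatant, which TMTpro 16plex LC-MS/MS quantified with equalised channel sums. Results are log-two fold changes in thermal stability compared with solvent controls, from duplicates.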

pictilisib = compound: CS(=O)(=O)N1CCN(Cc2cc3nc(-c4cccc5[nH]ncc45)nc(N4CCOCC4)c3s2)CC1 [pictilisib]
Procedure, shortened: as §1

crizotinib = compound: C[C@@H](Oc1cc(-c2cnn(C3CCNCC3)c2)cnc1N)c1c(Cl)ccc(F)c1Cl [crizotinib]
Procedure, shortened: as §1

[1] = compound: C[C@H](C1=CC=C(C=C1)C(=O)NC2=C3C=CNC3=NC=C2)N
Procedure, shortened: as §1

duvelisib = compound: C[C@H](Nc1ncnc2nc[nH]c12)c1cc2cccc(Cl)c2c(=O)n1-c1ccccc1 [duvelisib]
Procedure, shortened: as §1

gandotinib = compound: Cc1cc(Nc2cc(CN3CCOCC3)c3nc(C)c(Cc4ccc(Cl)cc4F)n3n2)n[nH]1 [gandotinib]
Procedure, shortened: as §1

tozasertib = compound: Cc1cc(Nc2cc(N3CCN(C)CC3)nc(Sc3ccc(NC(=O)C4CC4)cc3)n2)n[nH]1 [tozasertib]
Procedure, shortened: as §1

doramapimod = compound: Cc1ccc(-n2nc(C(C)(C)C)cc2NC(=O)Nc2ccc(OCCN3CCOCC3)c3ccccc23)cc1 [doramapimod]
Procedure, shortened: as §1

bafetinib = compound: Cc1ccc(NC(=O)c2ccc(CN3CC[C@H](N(C)C)C3)c(C(F)(F)F)c2)cc1Nc1nccc(-c2cncnc2)n1 [bafetinib]
Procedure, shortened: as §1

[2] = compound: Cc1cccc(CC(=O)N2CCc3c2ccc(-c2cn(C)c4ncnc(N)c24)c3F)n1
Procedure, shortened: as §1

nilotinib = compound: Cc1cn(-c2cc(NC(=O)c3ccc(C)c(Nc4nccc(-c5cccnc5)n4)c3)cc(C(F)(F)F)c2)cn1 [nilotinib]
Procedure, shortened: as §1

[3] = compound: Cc1nc(Nc2n[nH]c3c2CN(C(=O)N[C@H](CN(C)C)c2ccccc2)C3(C)C)c2sccc2n1
Procedure, shortened: as §1

dasatinib = compound: Cc1nc(Nc2ncc(C(=O)Nc3c(C)cccc3Cl)s2)cc(N2CCN(CCO)CC2)n1 [dasatinib]
Procedure, shortened: as §1

[4] = compound: Cc1ncc(-c2ccnc(Nc3ccc(S(C)(=O)=O)cc3)n2)n1C(C)C
Procedure, shortened: as §1

[5] = compound: Cn1cc(-c2ccc3c(c2)CCN3C(=O)Cc2cccc(C(F)(F)F)c2)c2c(N)ncnc21
Procedure, shortened: as §1

quisinostat = compound: Cn1cc(CNCC2CCN(c3ncc(C(=O)NO)cn3)CC2)c2ccccc21 [quisinostat]
Procedure, shortened: as §1

tipifarnib = compound: Cn1cncc1[C@@](N)(c1ccc(Cl)cc1)c1ccc2c(c1)c(-c1cccc(Cl)c1)cc(=O)n2C [tipifarnib]
Procedure, shortened: as §1

[6] = compound: NC(=O)Nc1cc(-c2cccc(F)c2)sc1C(=O)N[C@H]1CCCNC1
Procedure, shortened: as §1

[7] = compound: NC(=O)c1cnc(N[C@@H]2CCCC[C@@H]2N)nc1Nc1cccc(-n2nccn2)c1
Procedure, shortened: as §1

[8] = compound: NC1(c2ccc(-c3nc4ccn5c(=O)[nH]nc5c4cc3-c3ccccc3)cc2)CCC1
Procedure, shortened: as §1

Measured: log2 fold change

AP1S2 isoform 2 (UniProt P56377)
inactive: lapatinib -0.009 | pictilisib 0.004 | crizotinib -0.011 | [1] -0.351 | duvelisib 0.035 | gandotinib 0.058 | tozasertib 0.04 | doramapimod 0.182 | bafetinib 0.01 | [2] 0.121 | nilotinib -0.034 | [3] -0.04 | dasatinib -0.07 | [4] 0.029 | [5] -0.077 | quisinostat -0.251 | tipifarnib 0.004 | [6] 0.03 | [7] 0 | [8] 0.094

ANAPC7 (UniProt Q9UJX3)
inactive: lapatinib -0.017 | pictilisib 0.002 | crizotinib -0.029 | [1] -0.009 | duvelisib -0.018 | gandotinib -0.042 | tozasertib -0.019 | doramapimod 0.023 | bafetinib -0.036 | [2] 0.002 | nilotinib -0.004 | [3] -0.006 | dasatinib -0.004 | [4] 0.008 | [5] 0.02 | quisinostat -0.054 | tipifarnib -0.019 | [6] 0.03 | [7] 0 | [8] -0.018

ALKBH8 isoform 4 (UniProt Q96BT7)
inactive: lapatinib 0.002 | pictilisib -0.012 | crizotinib -0.005 | [1] -0.097 | duvelisib 0.048 | gandotinib 0 | tozasertib -0.032 | doramapimod 0.017 | bafetinib -0.046 | [2] 0.072 | nilotinib -0.018 | [3] -0.061 | dasatinib 0 | [4] 0 | [5] -0.009 | quisinostat -0.048 | tipifarnib -0.01 | [6] 0.049 | [7] 0.037 | [8] -0.088

AP1G2 (UniProt O75843)
inactive: lapatinib 0.068 | pictilisib -0.008 | crizotinib -0.095 | [1] -0.049 | duvelisib -0.02 | gandotinib 0 | tozasertib -0.02 | doramapimod -0.004 | bafetinib 0.026 | [2] 0.039 | nilotinib -0.013 | [3] -0.046 | dasatinib -0.081 | [4] -0.019 | [5] 0.048 | quisinostat -0.006 | tipifarnib 0.063 | [6] 0.005 | [7] -0.012 | [8] -0.125

ANO6 (UniProt Q4KMQ2)
inactive: lapatinib -0.024 | pictilisib -0.064 | crizotinib 0.001 | [1] -0.002 | duvelisib -0.057 | gandotinib -0.028 | tozasertib -0.029 | doramapimod 0.001 | bafetinib -0.056 | [2] 0.009 | nilotinib -0.046 | [3] 0.01 | dasatinib 0.005 | [4] -0.004 | [5] 0.001 | quisinostat 0.001 | tipifarnib 0.038 | [6] 0.02 | [7] -0.003 | [8] -0.013

ALKBH5 (UniProt Q6P6C2)
inactive: lapatinib -0.13 | pictilisib -0.074 | crizotinib 0.012 | [1] -0.055 | duvelisib -0.056 | gandotinib 0.204 | tozasertib -0.036 | doramapimod -0.088 | bafetinib 0.023 | [2] 0.155 | nilotinib 0.151 | [3] -0.099 | dasatinib 0.057 | [4] 0.018 | [5] -0.008 | quisinostat 0.139 | tipifarnib 0.106 | [6] 0.002 | [7] 0.078 | [8] -0.071

AP3D1 isoform 5 (UniProt O14617)
inactive: lapatinib 0.008 | pictilisib 0.01 | crizotinib -0.02 | [1] -0.061 | duvelisib 0.023 | gandotinib 0.05 | tozasertib 0.019 | doramapimod 0.059 | bafetinib -0.042 | [2] 0.081 | nilotinib -0.001 | [3] 0.018 | dasatinib -0.043 | [4] 0.002 | [5] 0.003 | quisinostat -0.002 | tipifarnib -0.002 | [6] 0.016 | [7] -0.007 | [8] 0.03

Reprinted at random: two records from the list
AP1G2 (UniProt O75843)
inactive: lapatinib 0.068 | pictilisib -0.008 | crizotinib -0.095 | [1] -0.049 | duvelisib -0.02 | gandotinib 0 | tozasertib -0.02 | doramapimod -0.004 | bafetinib 0.026 | [2] 0.039 | nilotinib -0.013 | [3] -0.046 | dasatinib -0.081 | [4] -0.019 | [5] 0.048 | quisinostat -0.006 | tipifarnib 0.063 | [6] 0.005 | [7] -0.012 | [8] -0.125

AP3D1 isoform 5 (UniProt O14617)
inactive: lapatinib 0.008 | pictilisib 0.01 | crizotinib -0.02 | [1] -0.061 | duvelisib 0.023 | gandotinib 0.05 | tozasertib 0.019 | doramapimod 0.059 | bafetinib -0.042 | [2] 0.081 | nilotinib -0.001 | [3] 0.018 | dasatinib -0.043 | [4] 0.002 | [5] 0.003 | quisinostat -0.002 | tipifarnib -0.002 | [6] 0.016 | [7] -0.007 | [8] 0.03

(next part)

AP1M1 (UniProt Q9BXS5)
inactive: lapatinib 0.009 | pictilisib -0.008 | crizotinib 0.035 | [1] -0.051 | duvelisib 0.018 | gandotinib 0.024 | tozasertib -0.016 | doramapimod 0.027 | bafetinib -0.021 | [2] 0.016 | nilotinib -0.034 | [3] 0.015 | dasatinib -0.015 | [4] 0.009 | [5] 0.004 | quisinostat 0.028 | tipifarnib 0.007 | [6] -0.013 | [7] -0.014 | [8] 0.021

ALG6 (UniProt Q9Y672)
inactive: lapatinib -0.049 | pictilisib -0.004 | crizotinib -0.04 | [1] -0.105 | duvelisib 0.045 | gandotinib -0.005 | tozasertib -0.003 | doramapimod -0.016 | bafetinib -0.05 | [2] 0.093 | nilotinib 0.033 | [3] -0.03 | dasatinib -0.112 | [4] -0.032 | [5] -0.043 | quisinostat -0.013 | tipifarnib 0 | [6] 0.058 | [7] 0.075 | [8] -0.041

ALDH5A1 isoform 2 (UniProt P51649)
inactive: lapatinib -0.012 | pictilisib -0.049 | crizotinib -0.044 | [1] 0 | duvelisib -0.056 | gandotinib -0.059 | tozasertib 0.005 | doramapimod -0.011 | bafetinib 0.008 | [2] -0.035 | nilotinib 0.003 | [3] -0.019 | dasatinib -0.005 | [4] -0.015 | [5] -0.003 | quisinostat 0.028 | tipifarnib -0.063 | [6] 0.04 | [7] 0.004 | [8] -0.023

ANK1 isoform 14 (UniProt P16157)
inactive: lapatinib -0.008 | pictilisib -0.019 | crizotinib -0.039 | [1] 0.041 | duvelisib -0.017 | gandotinib -0.049 | tozasertib 0.001 | doramapimod -0.029 | bafetinib -0.057 | [2] -0.011 | nilotinib 0.015 | [3] -0.014 | dasatinib -0.037 | [4] -0.004 | [5] 0.012 | quisinostat -0.037 | tipifarnib 0.016 | [6] 0.068 | [7] 0.001 | [8] -0.027

ANAPC10 (UniProt Q9UM13)
inactive: lapatinib -0.008 | pictilisib -0.012 | crizotinib -0.003 | [1] -0.038 | duvelisib 0.025 | gandotinib 0.029 | tozasertib 0 | doramapimod -0.049 | bafetinib -0.047 | [2] 0.026 | nilotinib -0.005 | [3] -0.008 | dasatinib -0.04 | [4] -0.019 | [5] 0.05 | quisinostat 0.016 | tipifarnib -0.014 | [6] 0.061 | [7] -0.003 | [8] 0.066

ANXA2 isoform 2 (UniProt P07355)
inactive: lapatinib 0.009 | pictilisib -0.005 | crizotinib 0.029 | [1] 0.017 | duvelisib -0.028 | gandotinib 0.008 | tozasertib -0.001 | doramapimod -0.024 | bafetinib 0.065 | [2] -0.041 | nilotinib 0.035 | [3] -0.016 | dasatinib 0.048 | [4] 0.003 | [5] -0.017 | quisinostat 0.064 | tipifarnib 0.016 | [6] -0.018 | [7] -0.015 | [8] 0.022

AKT1S1 isoform 3 (UniProt Q96B36)
inactive: lapatinib 0.015 | pictilisib -0.001 | crizotinib 0.019 | [1] 0.026 | duvelisib -0.003 | gandotinib 0.024 | tozasertib -0.026 | doramapimod 0.009 | bafetinib -0.037 | [2] -0.002 | nilotinib 0.036 | [3] 0.025 | dasatinib 0.008 | [4] -0.002 | [5] 0.018 | quisinostat -0.014 | tipifarnib -0.037 | [6] -0.004 | [7] 0 | [8] 0.019

ALG3 (UniProt Q92685)
inactive: lapatinib -0.069 | pictilisib 0.031 | crizotinib -0.057 | [1] -0.15 | duvelisib -0.104 | gandotinib 0 | tozasertib -0.04 | doramapimod 0.037 | bafetinib -0.061 | [2] 0.261 | dasatinib -0.049 | [5] 0.068 | quisinostat 0.077 | [6] -0.017 | [7] 0.092 | [8] -0.036

ANXA1 (UniProt P04083)
inactive: lapatinib 0.005 | pictilisib 0.013 | crizotinib 0.018 | [1] -0.013 | duvelisib 0.016 | gandotinib -0.005 | tozasertib 0.012 | doramapimod 0.008 | bafetinib 0.038 | [2] 0.028 | nilotinib -0.01 | [3] -0.009 | dasatinib -0.009 | [4] -0.006 | [5] -0.006 | quisinostat 0.034 | tipifarnib 0.026 | [6] -0.015 | [7] 0.003 | [8] 0.009
